PubChem BioAssay AID652259, Drosophila RNAi Screening Center – 2013
Test: 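Knock-downs that push a Wingless-driven reporter up or down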 (primary screen). Cell system: Drosophila clone 8 imaginal disc epithelial cells. Knock-down reagent: long dsRNA against Drosophila genes. Challenge: pathway stimulated by co-transfected Wingless expression plasmid. Measurement: 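Firefly luciferase from a tcf-site Wingless reporter, measured alongside co-transfected Renilla luciferase that tracks transfection; pathway stimulated by a Wingless plasmid; the firefly-to-Renilla ratio is not deposited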. Scale: firefly reporter light: higher = more Wg reporter light, before normalisation; Renilla control light: higher = more transfected or surviving cells. Active means: 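a knock-down is a candidate when at least two out of four statistical tests show it departing from its plate mean; one test alone signals a weak candidate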. Meaning of the calls: active = candidate regulator (raises or lowers reporter); inactive = not a candidate.
The deposit covers about 22,000 reagents; below is an unselected part of those with a known target gene and a result. Over the whole deposit, 233 (1.1%) are marked active. 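Light values are raw, unnormalised plate reads; the ratio scores behind the reporter calls were not deposited.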 Entries without a mark were called inactive. A plus sign joins genes that one reagent is predicted to hit. Not stated in the record: the amount of reagent, the time to read-out, the dose of the treatment.

target gene | amplicon | reporter change call, replicate 1 | firefly reporter light, replicate 1 | firefly reporter light, replicate 2 | Renilla control light, replicate 1 | Renilla control light, replicate 2
CG17364 | DRSC10269 | – | 3623 | – | 2061 | –
CG17364 | DRSC10270 | – | 11045 | – | 4275 | –
CG17364 | DRSC22689 | – | 6.18e5 | 6.22e5 | 2.09e5 | 1.46e5
sowah | DRSC09186 | – | 3444 | – | 1482 | –
sowah | DRSC09758 | – | 4039 | – | 1795 | –
B52 | DRSC14121 | – | 7597 | 8.10e5 | 4554 | 4.05e5
Nup58 | DRSC16235 | – | 13674 | – | 2505 | –
lncRNA:CR31647 | DRSC21903 | – | 3.24e5 | 3.85e5 | 1.50e5 | 1.76e5
CG34445 | DRSC22404 | – | 5.34e5 | 5.23e5 | 1.37e5 | 1.51e5
Hsp60B | DRSC00542 | – | 11316 | – | 3785 | –
Gat | DRSC17144 | – | 12794 | – | 10880 | –
Ace | DRSC12959 | – | 3851 | – | 1434 | –
Ace | DRSC14100 | – | 5669 | – | 2300 | –
Ctl2 | DRSC14423 | – | 2739 | 8091 | 1053 | 2685
Ser7 | DRSC18201 | – | 1765 | 4563 | 912 | 1575
GramD1B | DRSC00426 | – | 2451 | 6157 | 1587 | 1312
GramD1B | DRSC00591 | – | 13638 | – | 3101 | –
AttC | DRSC06886 | – | 5997 | – | 2502 | –
CG15219 | DRSC03715 | – | 3284 | 9185 | 1344 | 3318
anchor | DRSC10861 | – | 2694 | – | 1320 | –
Mpp6 | DRSC03169 | – | 2072 | 4768 | 576 | 1965
SKIP | DRSC14713 | Wg reporter activity raised | 29936 | – | 4784 | –
SKIP | DRSC14714 | – | 37973 | – | 5050 | –
SKIP | DRSC15864 | – | 32752 | – | 4771 | –
SKIP | DRSC16195 | – | 6618 | 7719 | 2123 | 2755
SKIP | DRSC16196 | – | 36184 | – | 4432 | –
CG33543 | DRSC00384 | – | 6779 | 12477 | 1204 | 2241
CG33543 | DRSC00385 | – | 4069 | 5197 | 1347 | 2593
CG9192 | DRSC08639 | – | 3513 | – | 1773 | –
CG15741 | DRSC19707 | – | 27400 | – | 9580 | –
Ets65A | DRSC09968 | – | 967 | 7160 | 805 | 2756
Ets65A | DRSC10738 | – | 2784 | – | 1851 | –
Ets65A | DRSC11164 | – | 5761 | – | 2706 | –
CG10339 | DRSC04065 | – | 1782 | 6249 | 359 | 1169
CG2961 | DRSC18246 | – | 22992 | – | 6876 | –
CG32086 | DRSC10586 | – | 4720 | – | 1861 | –
CG15196 | DRSC19643 | – | 11552 | – | 5719 | –
Iris | DRSC00663 | – | 10857 | – | 4170 | –
CG10348 | DRSC02043 | – | 5013 | 9696 | 1318 | 4419
CG10348 | DRSC21908 | – | 4.25e5 | 4.59e5 | 1.22e5 | 1.26e5
ind | DRSC11355 | – | 6036 | – | 685 | –
Dpy-30L1 | DRSC02959 | – | 2450 | 7377 | 1114 | 4103
CG9747 | DRSC16554 | – | 3056 | 7793 | 1098 | 1756
CG31253 + CG31131 | DRSC13839 | – | 4485 | – | 1879 | –
Nox | DRSC06596 | – | 6245 | – | 2225 | –
Nox | DRSC06857 | – | 6171 | – | 2409 | –
w-cup | DRSC03048 | – | 4211 | 8277 | 1362 | 2549
Df31 | DRSC03738 | – | 15565 | – | 3335 | –
Df31 | DRSC22163 | – | 8.81e5 | 8.19e5 | 4.09e5 | 4.86e5
CG12325 | DRSC06130 | – | 12313 | – | 3216 | –
CG31493 | DRSC12583 | – | 7097 | – | 3047 | –
AOX2 | DRSC15338 | – | 11587 | – | 3002 | –
Or98a | DRSC16774 | – | 5731 | – | 2384 | –
PAPLA1 | DRSC03095 | – | 11053 | – | 4172 | –
PAPLA1 | DRSC03096 | – | 1937 | 5633 | 837 | 2292
Xbp1 | DRSC04553 | – | 4584 | – | 1793 | –
Xbp1 | DRSC21624 | – | 4.44e5 | 4.70e5 | 2.57e5 | 1.66e5
stw | DRSC04842 | – | 2907 | 3956 | 758 | 1692
stw | DRSC04843 | – | 2217 | 3892 | 733 | 2163
stw | DRSC22527 | – | 6.63e5 | 7.34e5 | 1.56e5 | 1.21e5
Als2 | DRSC11806 | – | 5925 | – | 2652 | –
Kank | DRSC05513 | – | 20901 | – | 17484 | –
Kank | DRSC05933 | – | 10432 | – | 3767 | –
in | DRSC11888 | – | 11596 | – | 4866 | –
Wsck | DRSC13682 | – | 3248 | – | 1403 | –
tipE | DRSC08738 | – | 3931 | – | 1740 | –
Rim | DRSC16224 | – | 18209 | – | 4246 | –
Rim | DRSC16225 | – | 9554 | – | 704 | –
Rim | DRSC16226 | – | 2697 | 6308 | 1399 | 1851
Rim | DRSC16227 | – | 23203 | – | 5024 | –
Rim | DRSC22406 | – | 5.07e5 | 5.33e5 | 1.43e5 | 1.25e5
raptor | DRSC18359 | – | 13378 | – | 5164 | –
nrv3 | DRSC03097 | – | 5179 | – | 1637 | –

Reprinted from the listing (5 entries):
target gene | amplicon | reporter change call, replicate 1 | firefly reporter light, replicate 1 | firefly reporter light, replicate 2 | Renilla control light, replicate 1 | Renilla control light, replicate 2
SKIP | DRSC15864 | – | 32752 | – | 4771 | –
SKIP | DRSC16195 | – | 6618 | 7719 | 2123 | 2755
SKIP | DRSC16196 | – | 36184 | – | 4432 | –
CG33543 | DRSC00384 | – | 6779 | 12477 | 1204 | 2241
CG33543 | DRSC00385 | – | 4069 | 5197 | 1347 | 2593
